Assay results taken from patent US11452303B2, “Methods for feeding sows and for improving the health of young piglets” (PURINA ANIMAL NUTRITION LLC, priority 2003, dated 2022).

Assay: Sow performance: feed intake
Assay type: in vivo, swine
Settings: for sow feed intake during the pre-weaning period compared to Control: Trial A and Trial B (26 and 52 grams sorbitol per day)

OC[C@@H](O)[C@@H](O)[C@H](O)[C@@H](O)CO [sorbitol]
sow feed intake during the pre-weaning period compared to Control (Parity ≥ 1): did not experience any significant increase in feed intake
sow feed intake during the pre-weaning period compared to Control (Parity ≥ 2): did not experience any significant increase in feed intake
Sow Feed Intake (mean daily) (Trial A, 26 grams sorbitol per day, Parity ≥ 1, Day 1 thru Day 7): 9.77 pounds
Sow Feed Intake (mean daily) (Trial A, 26 grams sorbitol per day, Parity ≥ 1, Day 1 thru Day 14): 11.84 pounds
Sow Feed Intake (mean daily) (Trial A, 26 grams sorbitol per day, Parity ≥ 1, Day 1 thru Day 18): 12.45 pounds
Sow Feed Intake (mean daily) (Trial A, 26 grams sorbitol per day, Parity ≥ 1, Day 1 thru Weaning): 12.91 pounds
Sow Feed Intake (mean daily) (Trial A, 26 grams sorbitol per day, Parity ≥ 1, Day 8 thru Day 14): 13.92 pounds
Sow Feed Intake (mean daily) (Trial A, 26 grams sorbitol per day, Parity ≥ 2, Day 1 thru Day 7): 10.67 pounds
Sow Feed Intake (mean daily) (Trial A, 26 grams sorbitol per day, Parity ≥ 2, Day 1 thru Day 14): 12.77 pounds
Sow Feed Intake (mean daily) (Trial A, 26 grams sorbitol per day, Parity ≥ 2, Day 1 thru Day 18): 13.31 pounds
Sow Feed Intake (mean daily) (Trial A, 26 grams sorbitol per day, Parity ≥ 2, Day 1 thru Weaning): 13.70 pounds
Sow Feed Intake (mean daily) (Trial A, 26 grams sorbitol per day, Parity ≥ 2, Day 8 thru Day 14): 14.87 pounds
Sow Feed Intake (mean daily) (Trial B, 52 grams sorbitol per day, Parity ≥ 1, Day 1 thru Day 7): 8.65 pounds
Sow Feed Intake (mean daily) (Trial B, 52 grams sorbitol per day, Parity ≥ 1, Day 1 thru Day 14): 10.87 pounds
Sow Feed Intake (mean daily) (Trial B, 52 grams sorbitol per day, Parity ≥ 1, Day 1 thru Day 18): 11.68 pounds
Sow Feed Intake (mean daily) (Trial B, 52 grams sorbitol per day, Parity ≥ 1, Day 1 thru Weaning): 12.22 pounds
Sow Feed Intake (mean daily) (Trial B, 52 grams sorbitol per day, Parity ≥ 1, Day 8 thru Day 14): 13.11 pounds
feed intake decrease versus Control sow feed intake (Trial B, 52 grams sorbitol per day, Parity ≥ 1, over each of the measurement periods of the pre-weaning period): about 0.70 pounds
Sow Feed Intake (mean daily) (Trial B, 52 grams sorbitol per day, Parity ≥ 2, Day 1 thru Day 7): 10.00 pounds
Sow Feed Intake (mean daily) (Trial B, 52 grams sorbitol per day, Parity ≥ 2, Day 1 thru Day 14): 12.37 pounds
Sow Feed Intake (mean daily) (Trial B, 52 grams sorbitol per day, Parity ≥ 2, Day 1 thru Day 18): 13.07 pounds
Sow Feed Intake (mean daily) (Trial B, 52 grams sorbitol per day, Parity ≥ 2, Day 1 thru Weaning): 13.55 pounds
Sow Feed Intake (mean daily) (Trial B, 52 grams sorbitol per day, Parity ≥ 2, Day 8 thru Day 14): 14.74 pounds
